Measured values taken from article PMC12382473, “Retinoid X receptor γ interacts with peroxisome proliferator-activated receptor-γ to promote browning during adipose tissue differentiation” (Adipocyte, 2025).
No constants are given. Whether binding was seen depends on the method and setting. In cells and extracts the contact can be indirect. Some binding calls cover weakened binding; strength is not graded here. Where a sequence is shown, tags or fusion partners need not be part of it.

By UniProt entry, the sequences of proteins in these tests, tags left out.
UniProt Q9Y2H1: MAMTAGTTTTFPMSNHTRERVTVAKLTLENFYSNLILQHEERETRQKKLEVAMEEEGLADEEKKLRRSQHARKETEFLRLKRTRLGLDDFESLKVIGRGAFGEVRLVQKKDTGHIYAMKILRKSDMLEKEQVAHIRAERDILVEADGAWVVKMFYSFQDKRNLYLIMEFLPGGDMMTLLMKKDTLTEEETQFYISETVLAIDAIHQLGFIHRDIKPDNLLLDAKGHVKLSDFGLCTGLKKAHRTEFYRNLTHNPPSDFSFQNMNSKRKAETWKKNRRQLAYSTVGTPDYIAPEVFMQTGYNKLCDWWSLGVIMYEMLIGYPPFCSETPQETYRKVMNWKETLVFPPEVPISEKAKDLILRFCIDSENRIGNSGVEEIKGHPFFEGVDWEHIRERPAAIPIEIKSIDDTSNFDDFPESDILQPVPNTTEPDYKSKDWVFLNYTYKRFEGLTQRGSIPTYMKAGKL
UniProt Q15208: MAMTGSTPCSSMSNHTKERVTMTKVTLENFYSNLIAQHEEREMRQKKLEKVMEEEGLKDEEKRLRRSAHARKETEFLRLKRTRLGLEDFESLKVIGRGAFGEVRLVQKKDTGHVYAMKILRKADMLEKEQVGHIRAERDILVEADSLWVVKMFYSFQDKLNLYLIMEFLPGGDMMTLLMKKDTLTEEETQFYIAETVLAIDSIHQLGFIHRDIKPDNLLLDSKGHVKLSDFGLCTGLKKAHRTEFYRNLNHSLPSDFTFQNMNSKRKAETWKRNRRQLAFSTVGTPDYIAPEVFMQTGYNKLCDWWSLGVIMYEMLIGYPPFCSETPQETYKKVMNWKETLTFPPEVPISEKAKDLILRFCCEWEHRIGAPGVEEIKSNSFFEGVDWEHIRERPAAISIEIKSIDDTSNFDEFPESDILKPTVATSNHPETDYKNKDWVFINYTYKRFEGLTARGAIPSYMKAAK

What follows are molecules tested against T1, Flag-PPARγ, transfected in HEK293 cells (UniProt P37231 1-505) (assay: co-IP; HEK293 cells (methods: HEK-293T) co-transfected with Flag- and Myc-tagged proteins; lysed in RIPA buffer 48 h after transfection; anti-Flag beads overnight at 4°C; Western blot with anti-Flag and anti-Myc).
T1 sequence (looked up): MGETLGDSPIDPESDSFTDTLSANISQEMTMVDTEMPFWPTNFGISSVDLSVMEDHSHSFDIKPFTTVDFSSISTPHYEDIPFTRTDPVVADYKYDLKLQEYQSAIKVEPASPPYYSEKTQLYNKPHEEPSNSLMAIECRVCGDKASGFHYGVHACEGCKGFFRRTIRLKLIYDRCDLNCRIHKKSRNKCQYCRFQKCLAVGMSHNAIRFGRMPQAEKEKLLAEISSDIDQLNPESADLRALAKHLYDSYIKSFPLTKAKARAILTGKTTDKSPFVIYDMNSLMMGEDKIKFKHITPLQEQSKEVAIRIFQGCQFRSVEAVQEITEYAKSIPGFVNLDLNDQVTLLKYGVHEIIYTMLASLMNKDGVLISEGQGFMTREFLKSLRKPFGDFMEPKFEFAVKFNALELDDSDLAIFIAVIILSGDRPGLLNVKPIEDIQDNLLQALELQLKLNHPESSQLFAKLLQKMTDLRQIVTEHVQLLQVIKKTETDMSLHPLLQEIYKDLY

Molecule	binding
Myc-STK38L, transfected in HEK293 cells (from UniProt Q9Y2H1 1-464)	binds
Myc-STK38, transfected in HEK293 cells (from UniProt Q15208 1-465)	binds
Myc-RXRγ (retinoid X receptor γ), transfected in HEK293 cells (natural protein, UniProt P48443 1-463, looked up) MYGNYSHFMKFPAGYGGSPGHTGSTSMSPSAALSTGKPMDSHPSYTDTPVSAPRTLSAVGTPLNALGSPYRVITSAMGPPSGALAAPPGINLVAPPSSQLNVVNSVSSSEDIKPLPGLPGIGNMNYPSTSPGSLVKHICAICGDRSSGKHYGVYSCEGCKGFFKRTIRKDLIYTCRDNKDCLIDKRQRNRCQYCRYQKCLVMGMKREAVQEERQRSRERAESEAECATSGHEDMPVERILEAELAVEPKTESYGDMNMENSTNDPVTNICHAADKQLFTLVEWAKRIPHFSDLTLEDQVILLRAGWNELLIASFSHRSVSVQDGILLATGLHVHRSSAHSAGVGSIFDRVLTELVSKMKDMQMDKSELGCLRAIVLFNPDAKGLSNPSEVETLREKVYATLEAYTKQKYPEQPGRFAKLLLRLPALRSIGLKCLEHLFFFKLIGDTPIDTFLMEMLETPLQIT	binds
Myc-HNF4α, transfected in HEK293 cells (protein, UniProt P41235 1-474) MRLSKTLVDMDMADYSAALDPAYTTLEFENVQVLTMGNDTSPSEGTNLNAPNSLGVSALCAICGDRATGKHYGASSCDGCKGFFRRSVRKNHMYSCRFSRQCVVDKDKRNQCRYCRLKKCFRAGMKKEAVQNERDRISTRRSSYEDSSLPSINALLQAEVLSRQITSPVSGINGDIRAKKIASIADVCESMKEQLLVLVEWAKYIPAFCELPLDDQVALLRAHAGEHLLLGATKRSMVFKDVLLLGNDYIVPRHCPELAEMSRVSIRILDELVLPFQELQIDDNEYAYLKAIIFFDPDAKGLSDPGKIKRLRSQVQVSLEDYINDRQYDSRGRFGELLLLLPTLQSITWQMIEQIQFIKLFGMAKIDNLLQEMLLGGSPSDAPHAHHPLHPHLMQEHMGTNVIVANTMPTHLSNGQMCEWPRPRGQAATPETPQPSPPGGSGSEPYKLLPGAVATIVKPLSAIPQPTITKQEVI	no binding
